Reference: PubChem BioAssay AID1259254 (NCATS, 2017)
This is one part, drawn at random, of about 59,000 deposited reagents. About 1,550 of all reagents (2.6%) count as active. 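G2 share is only a proxy for re-replication; each gene was hit by three separate siRNAs, and active genes were retested.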 A number with no mark means an inactive call. The numbers tell different reagents against one gene apart. Not all columns of the deposit are shown. The record does not give: the amount of reagent.

- Aim: 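Gene knock-downs that lead to re-replication, shown by excess G2 DNA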 (primary screen)
- System: human HCT116 colorectal cancer cells
- Reagents: single siRNA against human genes
- Timing: 3 days
- Detection: 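Nuclei stained with Hoechst and imaged; cell-cycle phase assigned by DNA content; G2 share scaled per plate, non-targeting siRNA 0%, GMNN siRNA 100%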
- Direction: G2 robust z-score: higher = more G2 cells, more excess DNA replication
- Hit rule: 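Active siRNAs have a G2 robust z of 5 or more median absolute deviations over the median, which in these data means about 38% or higher of GMNN control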

| gene knocked down | siRNA no. | G2 robust z-score |
| --- | --- | --- |
| SLC25A15 | 1 | -0.706 |
| SLC25A15 | 2 | 4.42 |
| SLC25A15 | 3 | -1.13 |
| B4GALNT1 | 1 | -0.124 |
| B4GALNT1 | 2 | 1.13 |
| B4GALNT1 | 3 | 3.19 |
| ZNF501 | 1 | 1.86 |
| ZNF501 | 2 | 0.152 |
| ZNF501 | 3 | 0.917 |
| EIF4E | 1 | -0.503 |
| EIF4E | 2 | 1.02 |
| EIF4E | 3 | 1 |
| FAAH2 | 1 | -0.369 |
| FAAH2 | 2 | -0.393 |
| FAAH2 | 3 | 0.448 |
| MUC1 | 1 | -0.269 |
| MUC1 | 2 | 0.705 |
| MUC1 | 3 | -0.219 |
| GUF1 | 1 | 1.12 |
| GUF1 | 2 | -1.57 |
| GUF1 | 3 | -0.452 |
| SPRR1B | 1 | -0.704 |
| SPRR1B | 2 | -0.319 |
| SPRR1B | 3 | 1.43 |
| RSPH4A | 1 | 2.79 |
| RSPH4A | 2 | 4.42 |
| RSPH4A | 3 | 1.58 |

Ordered by “G2 robust z-score” (high to low): 10 of the entries above
| gene knocked down | siRNA no. | G2 robust z-score |
| --- | --- | --- |
| GUF1 | 1 | 1.12 |
| EIF4E | 2 | 1.02 |
| EIF4E | 3 | 1 |
| MUC1 | 2 | 0.705 |
| FAAH2 | 3 | 0.448 |
| MUC1 | 3 | -0.219 |
| MUC1 | 1 | -0.269 |
| FAAH2 | 1 | -0.369 |
| FAAH2 | 2 | -0.393 |
| GUF1 | 2 | -1.57 |

More results:
| gene knocked down | siRNA no. | G2 robust z-score |
| --- | --- | --- |
| CAPN13 | 1 | -1.33 |
| CAPN13 | 2 | -0.291 |
| CAPN13 | 3 | -0.369 |
| PDCD10 | 1 | -1.2 |
| PDCD10 | 2 | 0.65 |
| PDCD10 | 3 | -0.394 |
| SLC20A2 | 1 | -0.0697 |
| SLC20A2 | 2 | 0.667 |
| SLC20A2 | 3 | 0.987 |
| SYDE1 | 1 | 0.559 |
| SYDE1 | 2 | 1.2 |
| SYDE1 | 3 | -0.286 |
| KRTAP12-3 | 1 | -0.432 |
| KRTAP12-3 | 2 | -0.282 |
| KRTAP12-3 | 3 | 6.21 (active) |
| CEBPD | 1 | -0.75 |
| CEBPD | 2 | -1.58 |
| CEBPD | 3 | -1.1 |
| SCRG1 | 1 | 0.801 |
| SCRG1 | 2 | -0.309 |
| SCRG1 | 3 | 0.384 |
| SGCA | 1 | 0.183 |
| SGCA | 2 | 0.746 |
| SGCA | 3 | 0.0436 |
| SMPX | 1 | -0.319 |
| SMPX | 2 | -0.982 |
| SMPX | 3 | 2.53 |
| DIRC3 | 1 | 0.263 |
| DIRC3 | 2 | 2.32 |
| DIRC3 | 3 | 0.984 |
| UNC5C | 1 | 1 |
| UNC5C | 2 | 3.77 |
| UNC5C | 3 | 2.41 |
| PPP4C | 1 | -1.18 |
| PPP4C | 2 | -1.12 |
| PPP4C | 3 | 0.794 |
| ATP6V1G2 | 1 | -0.0616 |
| ATP6V1G2 | 2 | 0.156 |
| ATP6V1G2 | 3 | 0.476 |
| HRH2 | 1 | -0.478 |
| HRH2 | 2 | -0.297 |
| HRH2 | 3 | -0.0986 |
